# PubChem BioAssay AID1259254, NCATS, 2017
# Purpose: 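Gene knock-downs that lead to re-replication, shown by excess G2 DNA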 (primary screen)
# Cell system: human HCT116 colorectal cancer cells
# Reagents: single siRNA against human genes
# Time to read-out: 3 days
# Detection: 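Nuclei stained with Hoechst and imaged; cell-cycle phase assigned by DNA content; G2 share scaled per plate, non-targeting siRNA 0%, GMNN siRNA 100%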
# Reading the numbers: G2 robust z-score: higher = more G2 cells, more excess DNA replication
# Active means: 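Active siRNAs have a G2 robust z of 5 or more median absolute deviations over the median, which in these data means about 38% or higher of GMNN control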
# Shown is one part, drawn at random, of about 59,000 reagents tested. About 1,550 of them (2.6%) were called active. 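G2 share is only a proxy for re-replication; each gene was hit by three separate siRNAs, and active genes were retested.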 Entries without a mark were called inactive. The numbers tell different reagents against one gene apart. Further read-outs or replicates are left out here. Not stated in the record: the amount of reagent.
Target gene,reagent no.,G2 robust z-score
GPRASP3,1,5.27 (active)
GPRASP3,2,2.49
GPRASP3,3,3.75
TRPM4,1,1.68
TRPM4,2,-1.13
TRPM4,3,2
ATRIP (ATR interacting protein),1,0.793
ATRIP (ATR interacting protein),2,0.0827
ATRIP (ATR interacting protein),3,-0.314
CYP2A6 (cytochrome P450 family 2 subfamily A member 6),1,0.484
CYP2A6 (cytochrome P450 family 2 subfamily A member 6),2,-0.203
CYP2A6 (cytochrome P450 family 2 subfamily A member 6),3,-1.01
SPACA3 (sperm acrosome associated 3),1,1.01
SPACA3 (sperm acrosome associated 3),2,-0.572
SPACA3 (sperm acrosome associated 3),3,-0.0825
PHACTR4 (phosphatase and actin regulator 4),1,-0.369
PHACTR4 (phosphatase and actin regulator 4),2,1.85
PHACTR4 (phosphatase and actin regulator 4),3,5.66 (active)
OTC (ornithine transcarbamylase),1,2.01
OTC (ornithine transcarbamylase),2,-0.741
OTC (ornithine transcarbamylase),3,-0.818
PPIAP72 (peptidylprolyl isomerase A pseudogene 72),1,-0.565
PPIAP72 (peptidylprolyl isomerase A pseudogene 72),2,-0.839
PPIAP72 (peptidylprolyl isomerase A pseudogene 72),3,-0.395
ODF4 (outer dense fiber of sperm tails 4),1,0.279
ODF4 (outer dense fiber of sperm tails 4),2,1.34
ODF4 (outer dense fiber of sperm tails 4),3,2.42
SOCS5P5 (suppressor of cytokine signaling 5 pseudogene 5),1,-0.0861
SOCS5P5 (suppressor of cytokine signaling 5 pseudogene 5),2,0.896
SOCS5P5 (suppressor of cytokine signaling 5 pseudogene 5),3,0.0915

Not a retest: 2 of the entries above.
Target gene,reagent no.,G2 robust z-score
CYP2A6 (cytochrome P450 family 2 subfamily A member 6),2,-0.203
CYP2A6 (cytochrome P450 family 2 subfamily A member 6),3,-1.01
